Test results published in the supplement of paper PMC8256030.
Several values for one entry are separate records, joined by “and”; a condition that tells them apart may be missing. Identical values can stand only once. Some of the results follow. This data set is noisy: repeats of one test often differ as much as different tests do.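 HEK293T cells were given each compound shortly before transfection with a reporter in which red mCherry is followed by the SARS-CoV-2 frameshift element and then GFP in the −1 frame, so GFP appears only after frameshifting.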

Assays:
[1] = system: SARS-CoV-2 -1 PRF reporter mCherry-FSE-GFP(-1); test: mCherry (red) intensity as percent of control; higher = higher upstream reporter expression; settings: 10 µM; 24 h; HEK293T
[2] = system: SARS-CoV-2 -1 PRF reporter mCherry-FSE-GFP(-1); test: percent effect, decrease of GFP/mCherry ratio (-1 PRF reporter) relative to controls; higher = stronger frameshift inhibition; settings: 10 µM; 24 h; HEK293T

## CCCCCCn1c(=O)c2c(ncn2C)n(C)c1=O [pentifylline]
[1]
  mCherry: 108%
[2]
  percent effect: 0.325%

## CCOc1ccccc1OCC(O)CO (configuration not stated) [guaietolin]
[1]
  mCherry: 93.3%
[2]
  percent effect: -0.617%

## C1=CN2CC(c3cccs3)N=C2S1 (configuration not stated) [antienite]
[1]
  mCherry: 95.5%
[2]
  percent effect: -1.66%

## CC(=O)CCCCn1c(=O)c2c(ncn2C)n(C)c1=O [pentoxifylline]
[1]
  mCherry: 83.5% and 72.8%
[2]
  percent effect: -2.9% and -3.95%

## CC(C)c1[nH]c2ccccc2c1C(=O)c1cccnc1 [nictindole]
[1]
  mCherry: 77.9%
[2]
  percent effect: -1.99%

## CC=CC(=O)N(CC)c1ccccc1C
[1]
  mCherry: 130%
[2]
  percent effect: 2.07%

## Nc1nc(=O)n([C@H]2C[C@H](O)[C@@H](CO)O2)cc1I [ibacitabine]
[1]
  mCherry: 114%
[2]
  percent effect: 2.68%

## Cc1cc(C)cc(NC(=O)Cc2ccc(OC(C)(C)C(=O)O)cc2)c1 [efaproxiral]
[1]
  mCherry: 99.6%
[2]
  percent effect: -1.36%

## CC(=O)SC[C@@H](Cc1ccccc1)C(=O)NCC(=O)OCc1ccccc1 [ecadotril]
[1]
  mCherry: 65.4%
[2]
  percent effect: -1.68%

## C=CCn1c(=O)n([C@@H]2O[C@H](CO)[C@@H](O)[C@H]2O)c2nc(N)[nH]c(=O)c21 [loxoribine]
[1]
  mCherry: 95.2%
[2]
  percent effect: -3.18%

## CC(C)[C@@H](C)/C=C/[C@@H](C)[C@H]1CC[C@H]2/C(=C/C=C3\C[C@@H](O)CC[C@@H]3C)CCC[C@]12C [Antitanil]
[1]
  mCherry: 99.7%
[2]
  percent effect: -3.5%

## Fc1ccc(Cn2c(NC3CCNCC3)nc3ccccc32)cc1 [tecastemizole]
[1]
  mCherry: 62.3%
[2]
  percent effect: -1.75%

## OCCOc1ccc(/C(=C(/CCCl)c2ccccc2)c2ccccc2)cc1 [ospemifene]
[1]
  mCherry: 70%
[2]
  percent effect: -3.16%

## CN1CCCC(n2nc(Cc3ccc(Cl)cc3)c3ccccc3c2=O)CC1 (configuration not stated) [azelastine]
[1]
  mCherry: 99.1%
[2]
  percent effect: 0.0404%

## O=C(O)Cc1sc(-c2ccccc2)nc1-c1ccc(Cl)cc1 [fentiazac]
[1]
  mCherry: 93.2%
[2]
  percent effect: -2.55%

## CC(CNC1CCCCC1)OC(=O)c1ccccc1 (configuration not stated) [hexylcaine]
[1]
  mCherry: 101%
[2]
  percent effect: -4.39%

## CCOC(=O)c1ccc(OC(=O)CCCCCNC(=N)N)cc1 [gabexate]
[1]
  mCherry: 97.3%
[2]
  percent effect: -1.35%

## Cc1cc(=O)oc2cc(O)ccc12 [hymecromone]
[1]
  mCherry: 81.5%
[2]
  percent effect: -5.7%

## CC(C)(C)NC[C@H](O)COc1ccccc1C1CCCC1 [penbutolol]
[1]
  mCherry: 68.2%
[2]
  percent effect: 1.51%

## COc1cc2c(cc1Cc1cccc(Cl)c1F)c(=O)c(C(=O)O)cn2[C@H](CO)C(C)C [elvitegravir]
[1]
  mCherry: 97%
[2]
  percent effect: -4.66%

## COc1ccc(OC(=O)N(CC(=O)O)Cc2ccc(OCCc3nc(-c4ccccc4)oc3C)cc2)cc1 [muraglitazar]
[1]
  mCherry: 102%
[2]
  percent effect: -4.91%

## CC[C@H]1OC(=O)[C@H](C)[C@@H](O[C@H]2C[C@@](C)(OC)[C@@H](O)[C@H](C)O2)[C@H](C)[C@@H](O[C@@H]2O[C@H](C)C[C@H](N(C)C)[C@H]2O)[C@](C)(O)C[C@@H](C)C(=O)[C@H](C)[C@@H](O)[C@H]1C [berythromycin]
[1]
  mCherry: 80.2%
[2]
  percent effect: -4.99%

## O=C(O)c1cc(-c2ccc(F)cc2F)ccc1O [diflunisal]
[1]
  mCherry: 98.3% and 78.4%
[2]
  percent effect: -2.83% and -8.8%

## CC1(c2ccccc2)CC(=O)N(CN2CCOCC2)C1=O (configuration not stated) [morsuximide]
[1]
  mCherry: 96.9%
[2]
  percent effect: -11.1%

## CCCN(CCC)C(=O)C(CCC(=O)O)NC(=O)c1ccccc1 (configuration not stated) [proglumide]
[1]
  mCherry: 66.5%
[2]
  percent effect: -4.6%

## O=C1CN(/N=C/c2ccc([N+](=O)[O-])o2)C(=O)N1CO [nifurtoinol]
[1]
  mCherry: 88%
[2]
  percent effect: -9.34%

## NC(CSSCC(N)C(=O)O)C(=O)O (configuration not stated)
[1]
  mCherry: 116%
[2]
  percent effect: 0.936%

## NCCCC(O)(P(=O)(O)O)P(=O)(O)O [Alendronate]
[1]
  mCherry: 60.4%
[2]
  percent effect: -8.26%

## COC(=O)[C@H](Cc1ccccc1)NC(=O)[C@@H](N)CC(=O)O
[1]
  mCherry: 78.9%
[2]
  percent effect: -2.49%

## NC(=O)c1ncn([C@@H]2O[C@H](CO)[C@@H](O)[C@H]2O)c1O [mizoribine]
[1]
  mCherry: 106%
[2]
  percent effect: -0.76%

## CN(C(=O)CO/N=C(\c1ccccc1)c1ccc2c(c1)CN1CC(=O)NC1=N2)C1CCCCC1 [revizinone]
[1]
  mCherry: 104%
[2]
  percent effect: 2.04%

## NCCC(O)(P(=O)(O)O)P(=O)(O)O [Pamidronate·2Na·5H2O]
[1]
  mCherry: 77.2%
[2]
  percent effect: -3.8%

## CC1=C(/C=C/C(C)=C/C=C/C(C)=C/C(=O)O)C(C)(C)CCC1 [tretinoin]
[1]
  mCherry: 100% and 99.8%
[2]
  percent effect: -3.3% and -1.45%

## O=C1O[C@H](CO)[C@@H](O)[C@H](O)[C@H]1O
[1]
  mCherry: 95.8%
[2]
  percent effect: -1.39%

## Cc1ccc(Cl)c(Nc2ccccc2C(=O)O)c1Cl [meclofenamic acid]
[1]
  mCherry: 68.4%
[2]
  percent effect: -11.1%

## NS(=O)(=O)c1ccc(Cl)c(S(N)(=O)=O)c1 [clofenamide]
[1]
  mCherry: 99.4%
[2]
  percent effect: -7.5%

## CN(C)CC/C=C1/c2ccccc2COc2ccc(CC(=O)O)cc21 [olopatadine]
[1]
  mCherry: 131%
[2]
  percent effect: -12.6%

## CC(=O)N(c1onc(C)c1C)S(=O)(=O)c1ccc(N)cc1
[1]
  mCherry: 105%
[2]
  percent effect: 1.88%

## CN(C)[C@@H]1C(=O)C(C(=O)NCN2CCCC2)=C(O)[C@@]2(O)C(=O)C3=C(O)c4c(O)cccc4[C@@](C)(O)[C@H]3C[C@@H]12
[1]
  mCherry: 120%
[2]
  percent effect: 2.64%

## CCCNCC(O)COc1ccccc1C(=O)CCc1ccccc1 (configuration not stated) [propafenone]
[1]
  mCherry: 96% and 87.7%
[2]
  percent effect: -2.65% and 0.589%

## Nc1nc2c(ncn2COC(CO)CO)c(=O)[nH]1 [ganciclovir]
[1]
  mCherry: 111%
[2]
  percent effect: -12.5%

## CNCC(=O)N[C@@H](CCCNC(=N)N)C(=O)N[C@H](C(=O)N[C@@H](Cc1ccc(O)cc1)C(=O)N[C@H](C(=O)N[C@@H](Cc1cnc[nH]1)C(=O)N1CCC[C@H]1C(=O)N[C@@H](C)C(=O)O)C(C)C)C(C)C [saralasin]
[1]
  mCherry: 75.8%
[2]
  percent effect: -9.94%

## Cc1cc(=O)[nH]c(=S)[nH]1
[1]
  mCherry: 112%
[2]
  percent effect: -0.219%

## CCOC(=O)[C@H](CCc1ccccc1)N[C@@H](C)C(=O)N(CC(=O)O)C1Cc2ccccc2C1 [delapril]
[1]
  mCherry: 90.2%
[2]
  percent effect: -5.35%

## COc1nc(N)nc2c1ncn2[C@@H]1O[C@H](CO)[C@@H](O)[C@@H]1O [Arranon]
[1]
  mCherry: 110%
[2]
  percent effect: 4.26%

## O=C(Nc1cccc2c(=O)cc(-c3nnn[nH]3)oc12)c1ccc(OCCCCc2ccccc2)cc1 [Pranlukast]
[1]
  mCherry: 85.4% and 105%
[2]
  percent effect: -1.47% and -0.96%

## CC(=O)NC[C@H]1CN(c2ccc(N3CCOCC3)c(F)c2)C(=O)O1 [linezolid]
[1]
  mCherry: 100% and 102%
[2]
  percent effect: 3.58% and -8.02%

## CC1(C)S[C@@H]2[C@H](NC(=O)COc3ccccc3)C(=O)N2[C@H]1C(=O)O [Pencillin V]
[1]
  mCherry: 79.4%
[2]
  percent effect: -4.57%

## O=C(O)CCC/C=C\CC1C(O)CC(O)C1/C=C/C(O)COc1cccc(Cl)c1 (configuration not stated) [cloprostenol]
[1]
  mCherry: 65.2%
[2]
  percent effect: -0.129%

## Nc1ccc(S(=O)(=O)[O-])cc1.Nc1ccc(S(=O)(=O)[O-])cc1.O.O.O.O.[Zn+2]
[1]
  mCherry: 113%
[2]
  percent effect: -3.75%

## Cn1c(=O)cc(N2CCC[C@@H](N)C2)n(Cc2ccccc2C#N)c1=O [Alogliptin]
[1]
  mCherry: 105%
[2]
  percent effect: -2.58%

## O=C1c2ccccc2S(=O)(=O)N1CCCN1CCN(c2ncccn2)CC1 [revospirone]
[1]
  mCherry: 75%
[2]
  percent effect: 2.84%

## CCCCOc1ccc(CC(=O)NO)cc1 [bufexamac]
[1]
  mCherry: 129%
[2]
  percent effect: -3.56%

## Nc1nc(=O)c2nc(CNc3ccc(C(=O)N[C@@H](CCC(=O)O)C(=O)O)cc3)cnc2[nH]1 [folic acid]
[1]
  mCherry: 76.5%
[2]
  percent effect: -10.7%

## c1ccc2c(CC3=NCCN3)cccc2c1 [naphazoline]
[1]
  mCherry: 92.3% and 78.4%
[2]
  percent effect: 0.706% and -8.67%

## CN(C)[C@@H]1C(=O)C(C(=O)NCN2CCCC2)=C(O)[C@@]2(O)C(=O)C3=C(O)c4c(O)cccc4[C@@](C)(O)[C@H]3C[C@@H]12 [Rolitetracycline]
[1]
  mCherry: 95.1%
[2]
  percent effect: -2.86%

## NC(=O)c1ccc[n+]([C@@H]2O[C@H](COP(=O)([O-])OP(=O)(O)OC[C@H]3O[C@@H](n4cnc5c(N)ncnc54)[C@H](O)[C@@H]3O)[C@@H](O)[C@H]2O)c1
[1]
  mCherry: 76.9%
[2]
  percent effect: -4.17%

## CC(C)c1nnc(NS(=O)(=O)c2ccc(N)cc2)s1 [glyprothiazol]
[1]
  mCherry: 88.1%
[2]
  percent effect: -1.34%

## COc1ccc2cc1Oc1cc3c(cc1OC)CC[N+](C)(C)[C@H]3Cc1ccc(cc1)Oc1c(OC)c(OC)cc3c1[C@@H](C2)[N+](C)(C)CC3 [Metubine]
[1]
  mCherry: 107%
[2]
  percent effect: -4.71%

## CCC(=O)O[C@@H]1CC(=O)O[C@H](C)C/C=C/C=C/[C@H](O)[C@H](C)C[C@H](CC=O)[C@H](O[C@@H]2O[C@H](C)[C@@H](O[C@H]3C[C@@](C)(O)[C@@H](OC(=O)CC)[C@H](C)O3)[C@H](N(C)C)[C@H]2O)[C@H]1OC [midecamycin]
[1]
  mCherry: 106%
[2]
  percent effect: -1.54%

## CC(=O)N[C@@H](CC(=O)N[C@@H](CCC(=O)O)C(=O)O)C(=O)O [Spaglumic Acid]
[1]
  mCherry: 96.9%
[2]
  percent effect: -2.33%

## NC(=O)NC1NC(=O)NC1=O (configuration not stated)
[1]
  mCherry: 104%
[2]
  percent effect: -0.493%

## O=C1OC(CN2CCOCC2)CN1/N=C/c1ccc([N+](=O)[O-])o1 (configuration not stated)
[1]
  mCherry: 82.8%
[2]
  percent effect: 2.3%

## N[C@H](C(=O)O)c1ccc(O)cc1 [oxfenicine]
[1]
  mCherry: 102%
[2]
  percent effect: -2.58%

## CCC(=O)NCC[C@@H]1CCc2ccc3c(c21)CCO3 [ramelteon]
[1]
  mCherry: 85.1%
[2]
  percent effect: -0.838%

## CCN(CC)CCCCCCNc1cc(OC)cc2c(C)ccnc12 [sitamaquine]
[1]
  mCherry: 77%
[2]
  percent effect: -12.5%

## CCc1nnc(NS(=O)(=O)c2ccc(N)cc2)s1 [sulfaethidole]
[1]
  mCherry: 95.8%
[2]
  percent effect: -6.49%

## CCOC(=O)c1ccc(N(CC(C)O)CC(C)O)cc1 (configuration not stated) [roxadimate]
[1]
  mCherry: 72.1%
[2]
  percent effect: -3.31%

## OC(CNCC(O)C1CCc2cc(F)ccc2O1)C1CCc2cc(F)ccc2O1 (configuration not stated) [nebivolol]
[1]
  mCherry: 153% and 146%
[2]
  percent effect: -6.55% and -3.99%

## CCC(=O)OCC(=O)[C@@]1(OC(=O)CC)[C@@H](C)C[C@H]2[C@@H]3CCC4=CC(=O)C=C[C@]4(C)[C@@]3(Cl)[C@@H](O)C[C@@]21C [Vanceril]
[1]
  mCherry: 107%
[2]
  percent effect: -2.12%

## CCCOc1ccc(S(=O)(=O)NCCC2CCCN2C)cc1-c1nc2c(CCC)nn(C)c2c(=O)[nH]1 (configuration not stated) [udenafil]
[1]
  mCherry: 88%
[2]
  percent effect: -0.341%
